Results published in PubChem BioAssay AID504834 (National Center for Advancing Translational Sciences (NCATS), 2011).
Out of some 320,000 compounds screened, about 22,000 (6.9%) were called active. This list was built around the results that the source calls inconclusive (neither active nor inactive); the mix of calls is not that of the screen. Calls come from the whole dose curve; as a rule, active = well fitted inhibition curve with a large enough effect; inconclusive = small, poorly fitted or top-dose-only effect, or another doubt; inactive = no such curve, though single readings can be large or run the other way. Where the call is inconclusive, the potency comes from a doubtful curve fit.
% is set by controls: 0 for no effect and ±100 for the full control effect; potency is the fitted concentration of half-maximal effect.

Test: Primary qHTS for delayed death inhibitors of the malarial parasite plastid, 96 hour incubation
Details: P. falciparum luciferase reporter growth; series mostly up to 28.7 µM; activity change, negative = inhibition: at the top concentration
Summary of the method: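 Plates of compound plus infected erythrocytes (2% hematocrit, 0.05% parasitemia final) incubate 96 hours, 37 C, 5% CO2. Detection reagent added; reduced luminescence from the parasites' luciferase reporter flags inhibition.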
In the case of `O=[N+]([O-])c1cccc(/C=N/Nc2nc(NCc3ccccc3)nc(N3CCOCC3)n2)c1O`, the Potency is reported as inconclusive: 6.57 µM [inhibitor, partial curve, poor fit].
In the case of `O=C(c1ccc(F)cc1)c1ccc(-c2ccc(F)cc2)nc1`, the “activity change, negative = inhibition” value is reported as inactive: 58%.
In the case of `CC(C)[C@H](NC(=O)CCCn1nnc2ccccc2c1=O)C(=O)O`, the “activity change, negative = inhibition” value is reported as inactive: 44.7%.
In the case of `CCCCOc1ccc(C(O)C(CN2CCOCC2)c2ccccc2)cc1` (stereo not given), the Potency is reported as inconclusive: 1.65 µM [inhibitor, partial curve, poor fit].
For `O=C(COc1ccc(Cl)cc1Cl)N1CCCN(C(=O)COc2ccc(Cl)cc2Cl)CC1`, the Potency was inconclusive: 9.28 µM [inhibitor, single point].
In the case of `Cc1ccc(S(=O)(=O)N(C)/N=C/c2ccc(C(=O)O)cc2)cc1`, the Potency is reported as inconclusive: 1.47 µM [inhibitor, single point].
In the case of `COc1ccc(NC(=O)Nc2cc(C)ccc2F)cc1OC`, the Potency is reported as inconclusive: 10.4 µM [inhibitor, single point].
For `CC1CCCCC1NC(=O)c1nnc(Cc2ccc(Cl)cc2)o1` (stereo not given), the Potency was inconclusive: 3.29 µM [inhibitor, partial curve].
For `Oc1ccccc1/C=N/NC(=S)NC1CC2CCC1C2` (stereo not given), the Potency was active: 1.31 µM.
For `Cc1cc2nc(C)n(CCCNC(=O)Nc3ccc(C#N)cc3)c2cc1C`, the “activity change, negative = inhibition” value was inactive: 4.29%.
In the case of `Cc1cc(NC(=O)c2ccco2)c(=O)n(Cc2c(F)cccc2Cl)c1`, the “activity change, negative = inhibition” value is reported as inactive: -11.1%.
With `CN=c1scc(-c2ccccc2F)n1/N=C(\C)c1cccnc1` the Potency was inconclusive: 9.28 µM [inhibitor, single point].
For `O=C(C[n+]1ccc(C(=O)N/N=C/c2ccc(Cl)cc2Cl)cc1)c1ccccc1`, the Potency was inconclusive: 18.5 µM [inhibitor, single point].
With `CCOC(=O)C1CCN(C(=O)CCC(=O)NCCc2ccc(Cl)cc2)CC1` the Potency was inconclusive: 14.7 µM [inhibitor, single point].
With `COc1ccc(C(C)NC(=O)c2ccoc2C)cc1OC` (stereo not given) the Potency was inconclusive: 18.5 µM [inhibitor, single point].
In the case of `Nc1nonc1-n1nnc(C(=O)N/N=C/c2ccccc2)c1CN1CCc2ccccc21`, the Potency is reported as inconclusive: 2.33 µM [inhibitor, partial curve, poor fit].
With `O=C(COc1ccc(Br)cc1Cl)NC1CCCCC1` the “activity change, negative = inhibition” value was inactive: 218%.
With `CC(=O)Nc1ccccc1C(=O)OCC(=O)c1cccc2ccccc12` the Potency was inconclusive: 6.57 µM [inhibitor, partial curve, poor fit].
In the case of `O=C(CCCN1C(=O)/C(=C/c2ccco2)SC1=S)Nc1ccccc1`, the Potency is reported as inconclusive: 16.5 µM [inhibitor, single point].
With `O=C(COC(=O)c1ccc[n+]([O-])c1)Nc1c(Br)cc([N+](=O)[O-])cc1Br` the “activity change, negative = inhibition” value was inactive: 8.88%.
With `CC1=C(C(=O)O)N2C(=O)C(NC(=O)Cc3ccccc3)C2SC1` (stereo not given) the “activity change, negative = inhibition” value was inactive: 20.6%.
For `COc1ccc(NC(=O)CN(c2ccccc2F)S(=O)(=O)c2ccc(C)cc2)cc1`, the “activity change, negative = inhibition” value was inactive: 0%.
In the case of `CCOc1ccc(C(=O)Nc2ccc(NC(=O)c3ccco3)c(Cl)c2)cc1Cl`, the “activity change, negative = inhibition” value is reported as inactive: 16.6%.
In the case of `CCOc1ccc(/C=N/NC(=O)c2csc(C)c2C)c(OCC)c1`, the “activity change, negative = inhibition” value is reported as inactive: 0.843%.
In the case of `Cc1ccc(-c2csc(CC(N)=O)n2)cc1`, the Potency is reported as inconclusive: 10.4 µM [inhibitor, partial curve, poor fit].
With `Cc1cc(C)n2ncc(C(=O)Nc3ccc(Cl)c(Cl)c3)c2n1` the Potency was inconclusive: 8.28 µM [inhibitor, single point].
With `N#C/C(=C/c1cn(CC(=O)O)c2ccccc12)C(=O)NCc1ccccc1` the Potency was inconclusive: 0.233 µM [inhibitor, full curve, poor fit].
With `Cc1cc(C(=O)COc2ccc(Br)cc2F)c(C)n1C1CC1` the Potency was inconclusive: 10.4 µM [inhibitor, partial curve].
In the case of `CCOc1ccc(-n2c(SCc3ccc([N+](=O)[O-])cc3)nnc2-c2ccccc2)cc1`, the Potency is reported as active: 4.65 µM.
For `CCCN(CC(=O)Nc1ccccc1OC)C(C)C(=O)NC(C)CCc1ccccc1` (stereo not given), the “activity change, negative = inhibition” value was inactive: -11.3%.
With `COc1ccc(C(=O)N(NC(=O)Oc2ccccc2)C(C)(C)C)cc1` the Potency was inconclusive: 18.5 µM [inhibitor, single point].
For `COC(=O)CC1=C(C(=O)OC)C(c2ccncc2)C(C#N)=C(N)O1` (stereo not given), the Potency was inconclusive: 18.5 µM [inhibitor, single point].
In the case of `CCOc1ccc(-c2ncncc2-c2ccccc2OC)c(O)c1`, the Potency is reported as inconclusive: 2.33 µM [inhibitor, full curve, poor fit].
In the case of `COc1ccc(-c2cc(=O)c3c(OC)c(OC)c(OC)c(OC)c3o2)cc1OC`, the Potency is reported as inconclusive: 0.104 µM [inhibitor, full curve, poor fit].
In the case of `N#Cc1ccc(NC(=O)Nc2ccc(Oc3ccc(NC(=O)Nc4ccc(C#N)cc4)cc3)cc2)cc1`, the Potency is reported as inconclusive: 5.22 µM [inhibitor, partial curve].
In the case of `O=C(Nc1ccc(Cl)cc1C(=O)NCCN1CCOCC1)c1ccco1`, the “activity change, negative = inhibition” value is reported as inactive: 125%.
In the case of `Cc1c(/C(O)=C2/C(=O)C(=O)N(CCN(C)C)C2c2ccc(C(C)C)cc2)cnn1-c1ccccc1` (stereo not given), the “activity change, negative = inhibition” value is reported as inactive: 12.4%.
With `O=C(NC12CC3CC(CC(C3)C1)C2)c1ccc(COc2ccc(Cl)cc2[N+](=O)[O-])o1` the Potency was inconclusive: 0.329 µM [inhibitor, partial curve, poor fit].
In the case of `Cc1ccccc1-n1cc(CNC(=O)CCc2nnc(CCc3ccccc3)o2)cn1`, the “activity change, negative = inhibition” value is reported as inactive: -13.9%.
In the case of `COc1cc2c(C(=O)N3CCOCC3)c(CSc3ccccc3)n(C)c2cc1Br`, the Potency is reported as inconclusive: 18.5 µM [inhibitor, single point].
With `CC(C)Cc1ccc(CN2CCCC(NC(=O)c3cccc(-n4cnnc4)c3)C2)cc1` (stereo not given) the “activity change, negative = inhibition” value was inactive: -22.3%.
For `CC(=O)Nc1ccc2sccc2c1`, the Potency was inconclusive: 0.0233 µM [inhibitor, full curve, poor fit].
With `Cn1ncc([N+](=O)[O-])c1C(=O)Nc1ccc(-c2nc3ccccc3o2)cc1` the Potency was active: 4.65 µM.
In the case of `CC(=O)N1c2ccc(S(=O)(=O)NCC3CCC(C(=O)N(C)Cc4ccccc4)CC3)cc2CC1C` (stereo not given), the Potency is reported as inconclusive: 8.28 µM [inhibitor, partial curve, poor fit].
For `COc1ccccc1CCC(=O)N1CCN(S(=O)(=O)c2cccc(F)c2)CC1`, the “activity change, negative = inhibition” value was inactive: -20.5%.
For `CCOCC(=O)Nc1cc(C(=O)Nc2ccccc2)ccc1Cl`, the “activity change, negative = inhibition” value was inactive: 105%.
In the case of `CN(C)c1nc(N)ncc1-c1ccc(Oc2ccccc2)cc1`, the Potency is reported as inconclusive: 13.1 µM [inhibitor, single point].
With `O=C(CCn1c(=O)sc2ccccc21)NC1=NCCS1` the Potency was inconclusive: 0.37 µM [inhibitor, partial curve, poor fit].
For `O=[N+]([O-])c1ccc(N2CCN(Cc3ccc(Br)o3)CC2)cc1`, the “activity change, negative = inhibition” value was inactive: -11.7%.
With `O=C(CSc1nc2ccccc2c(=O)n1CCCN1CCOCC1)NC12CC3CC(CC(C3)C1)C2` the Potency was inconclusive: 2.94 µM [inhibitor, full curve, poor fit].
For `c1ccc(CCN(Cc2ccccc2)C2CCN(C3CCCC3)CC2)cc1`, the Potency was inconclusive: 11.7 µM [inhibitor, partial curve, poor fit].
With `Cc1ccc(C)c(Cn2c3ccccc3c3cnn(CC(=O)NCCN4CCOCC4)c(=O)c32)c1` the Potency was active: 9.28 µM.
With `COCCOC(=O)C1=C(C)N=C2SCCC(=O)N2C1c1ccc(OC(=O)c2ccco2)cc1` (stereo not given) the “activity change, negative = inhibition” value was inactive: 2.53%.
For `OC1CCN(Cc2ccc(OCc3ccccc3)cc2)CC1`, the Potency was active: 4.15 µM.
With `COc1ccc(CNc2nccs2)cc1` the Potency was inconclusive: 18.5 µM [inhibitor, partial curve, poor fit].
With `CC12CN3CC(C)(CN(C1)C3c1ccco1)C2=O` (stereo not given) the Potency was inconclusive: 9.28 µM [inhibitor, single point].
For `CCCc1cc(=O)oc2c(C)c(OCC(=O)N3CCC(C(=O)O)(c4ccccc4)CC3)ccc12`, the Potency was inconclusive: 14.7 µM [inhibitor, single point].
With `Cc1ccc(-c2nnc(-c3ccc(NC(=O)c4ccco4)cc3)o2)cc1` the Potency was inconclusive: 20.8 µM [inhibitor, partial curve, poor fit].
With `CCOc1cc2[nH]c(=S)n(Cc3ccc(C)o3)c(=O)c2cc1OCC` the Potency was inconclusive: 13.1 µM [inhibitor, single point].
With `CCCCCSc1cc(OC)c(CCN)cc1OC` the Potency was inconclusive: 9.28 µM [inhibitor, partial curve, poor fit].
For `O=C(Cn1nc(C(F)F)cc1C(F)F)N/N=C/c1ccc2c(c1)OCO2`, the “activity change, negative = inhibition” value was inactive: 89.4%.
With `CCN(CC)S(=O)(=O)c1cc(C(=O)OC(C)C(=O)NCc2ccco2)ccc1C` (stereo not given) the Potency was inconclusive: 0.522 µM [inhibitor, full curve, poor fit].
For `Cc1ccc(S(=O)(=O)N2CCCCC2)cc1C(=O)Nc1ccc2cn[nH]c2c1`, the “activity change, negative = inhibition” value was inactive: -26.2%.
For `CC(=O)c1ccc(OC(C)C)c(CC(C(N)=O)C(N)=O)c1`, the Potency was inconclusive: 11.7 µM [inhibitor, partial curve, poor fit].
In the case of `Cc1oc(-c2ccccc2F)nc1CSCC(=O)NC1CCCC1`, the Potency is reported as active: 1.47 µM.
For `Cc1ccccc1CN1C[C@@H]2C[C@@H](c3cnc(N4CCOCC4)s3)N3CCC[C@@]23C1=O`, the “activity change, negative = inhibition” value was inactive: 13.1%.
For `CCOC(=O)N1CCN(C(=O)c2ccc3c(=O)n(CCc4ccc(OC)c(OC)c4)c(=O)[nH]c3c2)CC1`, the Potency was active: 2.62 µM.
With `Cc1ccc(S(=O)(=O)Nc2cccc(-n3cnnn3)c2)cc1` the “activity change, negative = inhibition” value was inactive: 20.1%.
In the case of `CC(Nc1nc(Nc2ccc(F)cc2)nc(SCC(N)=O)n1)c1ccccc1` (stereo not given), the Potency is reported as inconclusive: 10.4 µM [inhibitor, single point].
With `CN1C(=O)NC(=O)/C(=C\c2ccc([N+](=O)[O-])o2)C1=O` the Potency was inconclusive: 4.15 µM [inhibitor, single point].
